The text below walks through data of PMC10645843, “Fungal secondary metabolism is governed by an RNA-binding protein CsdA/RsdA complex” (Nature Communications, 2023).

These are yes or no findings as the source states them, for the method shown. In cells and extracts the contact can be indirect. Some results given as binding are weak or reduced against the parent protein; the word gives no strength. Sequences can lack the tags named with a protein.

This assay deals with T1, RsdA-YFP^N-terminal (Pestalotiopsis fici) (UniProt W3WX91).
T1 sequence: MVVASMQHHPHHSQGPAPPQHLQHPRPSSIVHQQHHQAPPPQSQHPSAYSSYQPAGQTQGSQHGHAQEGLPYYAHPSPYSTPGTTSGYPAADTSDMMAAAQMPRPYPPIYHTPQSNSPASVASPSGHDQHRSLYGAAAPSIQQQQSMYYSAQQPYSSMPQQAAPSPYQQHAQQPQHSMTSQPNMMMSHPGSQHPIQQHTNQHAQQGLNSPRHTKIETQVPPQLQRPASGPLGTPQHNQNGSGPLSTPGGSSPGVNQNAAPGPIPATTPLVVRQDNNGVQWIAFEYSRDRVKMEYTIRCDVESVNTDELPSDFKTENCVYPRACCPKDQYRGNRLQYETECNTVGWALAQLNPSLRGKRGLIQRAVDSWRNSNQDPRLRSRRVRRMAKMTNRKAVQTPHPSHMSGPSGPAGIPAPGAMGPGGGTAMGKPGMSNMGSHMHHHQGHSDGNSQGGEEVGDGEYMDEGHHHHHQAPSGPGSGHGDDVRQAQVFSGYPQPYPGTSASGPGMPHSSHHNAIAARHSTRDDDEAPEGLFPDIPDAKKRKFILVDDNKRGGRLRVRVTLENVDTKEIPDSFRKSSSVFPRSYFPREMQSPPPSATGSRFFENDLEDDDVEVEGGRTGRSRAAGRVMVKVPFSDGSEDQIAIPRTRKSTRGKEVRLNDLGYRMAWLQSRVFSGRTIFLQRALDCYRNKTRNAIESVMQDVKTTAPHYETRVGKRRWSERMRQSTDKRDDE
Briefly: split reporter; BiFC in P. fici (strain TYSZL34 with RsdA-NYFP and CsdA-CYFP); mycelia fixed, DAPI stained, fluorescence microscopy; strains with a single construct as negative controls.

B1: GST-CsdA (PFICI_10709), recombinant (natural protein, Pestalotiopsis fici, UniProt W3WSJ8 1-634, looked up)
chain: MSTVPPQPPHFDRYVVIHVATTCDEHGVYVTKDSAEVIELGWIELDAKSLEELHRESVLVKPINTPITPLCTSLTTLTWEHVRNAGTFRDAINRFDAFASEHLTNQNLDFVFVTLDAWDLRVQLPREARDKAVVLPPYLQHSRTFDLRTEYQRWQQHHPESLPFGPSMLSNICAALEVEPVQSSAPIKHNLPFHLQALAPASPRRAMEEAITLARVLRGLIRKSQPAHEHPDVLTRPMDARADVRAFLSERSKVLHMSGLPHDTTQSELESWFTQFGGRPIAFWTLRTPEQHKPTGTGFAVFSSHEEAAESLCMNGRALNEKAIEVSPSSSRVLDRAAEILTPFPPSKNRPRPGDWTCPSCGFSNFQRRTACFRCSFPAVGAGGPQNEMSSYGGGGGGSGGYGYGAPPMMPPPHHGGHHHHHGGMGHGGGRMGGSGVVPFRAGDWKCGNEVCGYHNFAKNVCCLRCGASRAGAAVVADSGYPSPMDSGSNYGMGSHSVGGTPGPGPYASAGGPFGGAGGGYGQHFGGPPSTYALPSGIGGGAAPYPSALNTHIGGPAPGSHSAGPFDSRAAEAAFQSAGNGPASAGPSNNFFGSQAENDPFAFLSTGIGGLTVSGDARQNGSGAGGPQSKSPAA
notes: open reading frame amplified from P. fici cDNA; CsdA said to contain 730 amino acids; GST-CsdA printed as 93.6 kDa; Printed as GST-CsdA; vector pGEX-4T (GST-tag); also called PfCsdA; GST-CsdA protein; source: E. coli BL21 (plasmid pYSZL6, pGEX-4T), purified (GST-tag resin)
On to B1, for which the binding result was “binds”.
